Literature values, collected in patent publication US20220298253A1, “TREATMENT OF RMS BY SWITCHING THERAPY” (Novartis AG, priority 2019, published 2022).
Where two headings read alike, the source gives them in different places. For at least one compound, name, drawing or mass did not settle the structure.

Tested on: MS patients
Settings: cited from earlier work

In the case of `C/C(O)=C(\C#N)C(=O)Nc1ccc(C(F)(F)F)cc1` [teriflunomide, reference compound], the “annualized relapse rate (ARR)” value (ASCLEPIOS I) is given as 0.22 and the “annualized relapse rate (ARR)” value (ASCLEPIOS II) is given as 0.25.
